Results taken from doi:10.1101/2021.05.09.443321.
Read-outs that look alike come from different tables or passages of the source. Results are given in words; binding and its absence hold for the method and conditions named. Binding seen in cells or lysates may run through a third protein. These calls come from enrichment with a bait or labelling near it, and not all partners need be listed. Each block holds one molecule with its values, some of them ahead of it.

Protein sequences, listed by entry. Tags and fused reporters are not part of them. Residues count along the entry.
UniProt P25322: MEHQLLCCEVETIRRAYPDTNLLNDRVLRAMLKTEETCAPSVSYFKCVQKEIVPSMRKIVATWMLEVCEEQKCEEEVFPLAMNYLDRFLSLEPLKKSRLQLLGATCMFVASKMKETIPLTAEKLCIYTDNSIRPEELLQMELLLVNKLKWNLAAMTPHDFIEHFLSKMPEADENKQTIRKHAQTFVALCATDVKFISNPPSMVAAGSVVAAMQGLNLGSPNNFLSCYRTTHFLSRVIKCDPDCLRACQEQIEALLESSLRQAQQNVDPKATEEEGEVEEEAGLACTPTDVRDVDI
UniProt P08113, residues 22-802: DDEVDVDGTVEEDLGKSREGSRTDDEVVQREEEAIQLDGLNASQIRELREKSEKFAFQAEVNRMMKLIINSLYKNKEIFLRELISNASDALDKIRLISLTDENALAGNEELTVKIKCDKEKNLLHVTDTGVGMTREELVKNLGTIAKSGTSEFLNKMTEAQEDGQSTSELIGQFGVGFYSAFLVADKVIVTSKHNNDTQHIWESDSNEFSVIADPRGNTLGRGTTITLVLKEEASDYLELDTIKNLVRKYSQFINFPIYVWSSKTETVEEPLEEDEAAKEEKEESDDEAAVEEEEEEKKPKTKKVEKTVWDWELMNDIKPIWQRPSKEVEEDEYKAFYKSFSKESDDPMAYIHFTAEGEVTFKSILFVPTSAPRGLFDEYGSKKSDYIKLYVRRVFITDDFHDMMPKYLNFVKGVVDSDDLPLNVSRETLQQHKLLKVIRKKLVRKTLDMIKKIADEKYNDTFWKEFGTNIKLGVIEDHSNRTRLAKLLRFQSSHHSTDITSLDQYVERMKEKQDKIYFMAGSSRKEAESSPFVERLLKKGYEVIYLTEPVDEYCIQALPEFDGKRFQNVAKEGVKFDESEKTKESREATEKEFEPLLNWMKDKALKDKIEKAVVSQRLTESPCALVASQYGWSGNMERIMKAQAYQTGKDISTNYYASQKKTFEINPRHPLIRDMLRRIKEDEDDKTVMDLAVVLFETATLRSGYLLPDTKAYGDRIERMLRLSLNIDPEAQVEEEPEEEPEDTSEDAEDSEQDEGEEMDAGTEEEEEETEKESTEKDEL
UniProt P09405: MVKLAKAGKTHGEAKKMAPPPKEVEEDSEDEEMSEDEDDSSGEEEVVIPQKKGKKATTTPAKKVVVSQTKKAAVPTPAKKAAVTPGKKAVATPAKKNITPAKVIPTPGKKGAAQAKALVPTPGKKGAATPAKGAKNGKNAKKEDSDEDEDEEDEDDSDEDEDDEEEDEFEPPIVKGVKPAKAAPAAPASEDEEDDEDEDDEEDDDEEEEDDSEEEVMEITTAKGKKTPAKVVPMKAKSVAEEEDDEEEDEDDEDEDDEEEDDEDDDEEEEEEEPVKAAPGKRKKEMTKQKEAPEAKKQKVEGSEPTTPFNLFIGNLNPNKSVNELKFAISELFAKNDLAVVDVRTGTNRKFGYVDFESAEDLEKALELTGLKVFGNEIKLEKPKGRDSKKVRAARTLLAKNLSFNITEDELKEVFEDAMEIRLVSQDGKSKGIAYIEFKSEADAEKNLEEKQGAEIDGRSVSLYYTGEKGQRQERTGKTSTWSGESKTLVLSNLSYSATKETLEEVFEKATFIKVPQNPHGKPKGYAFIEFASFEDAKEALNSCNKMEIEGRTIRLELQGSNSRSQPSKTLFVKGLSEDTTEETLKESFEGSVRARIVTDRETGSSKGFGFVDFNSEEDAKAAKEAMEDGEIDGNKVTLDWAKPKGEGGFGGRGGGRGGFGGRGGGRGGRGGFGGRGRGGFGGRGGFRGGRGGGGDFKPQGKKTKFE

Assays:
Cyclin D1-APEX [1] = target: Cyclin D1-APEX (UniProt P25322); test: proximity labelling
Cyclin D1-APEX [2] = target: Cyclin D1-APEX (UniProt P25322); test: proximity labelling; remark: listed apart in the source

binding (Cyclin D1-APEX [1]): binds
Molecule: Hsp90b1 (from UniProt P08113 22-802)

binding (Cyclin D1-APEX [1]): binds
Molecule: nucleolin (from UniProt P09405 1-707)

binding (Cyclin D1-APEX [2]): binds
B1: Lin28 (protein, UniProt Q8K3Y3 1-209)
chain: MGSVSNQQFAGGCAKAAEKAPEEAPPDAARAADEPQLLHGAGICKWFNVRMGFGFLSMTARAGVALDPPVDVFVHQSKLHMEGFRSLKEGEAVEFTFKKSAKGLESIRVTGPGGVFCIGSERRPKGKNMQKRRSKGDRCYNCGGLDHHAKECKLPPQPKKCHFCQSINHMVASCPLKAQQGPSSQGKPAYFREEEEEIHSPALLPEAQN
modifications: biotinylated by APEX (biotin-phenol)
